Data from patent US20230403873A1, “ORGANIC COMPOUND AND ORGANIC LIGHT-EMITTING DEVICE” (CANON KABUSHIKI KAISHA, priority 2022, published 2023).

Legend:
[1] = Evaluation of organic light-emitting device (vacuum-deposited, compound as guest in light-emitting layer), IVL measurement and continuous driving; settings: for EQE (external quantum efficiency): at 10 mA/cm^2, guest in EM33 host, ratio by weight 99:1; for LT80 (durability time when the luminance reached 80%): relative value, compound A defined as 1, continuous driving at 5 mA/cm^2
[2] = Evaluation of organic light-emitting devices (spin-coated light-emitting layer): EL spectrum compared with PL spectrum in toluene solution; settings: for Change in wavelength of first peak maximum in solution and device: EL spectrum of device vs PL spectrum of 10^-5 mol/L toluene solution; for Full width at half maximum: EL spectrum of device, guest in EM33 1:99

Row | Structure (SMILES) | EQE (external quantum efficiency) [1] | LT80 (durability time when the luminance reached 80%) [1] | Change in wavelength of first peak maximum in solution and device [2] | Full width at half maximum [2]
1 | CC(C)(C)c1cc2ccc3cc4c(c5ccc(c1)c2c35)-c1ccc(-c2ccc(-c3ccc(-c5ccc6c(c5)C(C)(C)c5cc7ccc8cc(C(C)(C)C)cc9ccc(c5-6)c7c89)cc3)cc2)cc1C4(C)C [Compound A] | 5.03% | 1 h | 48 nm | 140 nm
2 | CC(C)(C)c1cc2ccc3cc4c(c5ccc(c1)c2c35)-c1ccc(-c2ccc3c(c2)C2(c5ccccc5-3)c3ccccc3-c3ccc(-c5ccc6c(c5)C(C)(C)c5cc7ccc8cc(C(C)(C)C)cc9ccc(c5-6)c7c89)cc32)cc1C4(C)C [Compound (29)] | – | – | 6 nm | 75 nm
3 | CC(C)(C)c1cc2ccc3cc4c(c5ccc(c1)c2c35)-c1ccc(-c2ccc3c(c2)C2(c5ccccc5-c5ccccc52)c2cc(-c5ccc6c(c5)C(C)(C)c5cc7ccc8cc(C(C)(C)C)cc9ccc(c5-6)c7c89)ccc2-3)cc1C4(C)C [Compound (25)] | – | – | <1 nm | 47 nm
4 | CC(C)(C)c1cc2ccc3cc4c(c5ccc(c1)c2c35)-c1ccc(-c2cc(-c3ccc5c(c3)C(C)(C)c3cc6ccc7cc(C(C)(C)C)cc8ccc(c3-5)c6c78)ncn2)cc1C4(C)C [Compound (1)] | 5.48% | 1.3 h | – | –
